# Reference: US20200247841 (published 2020)
# Assay: general procedure: Fmoc solid-phase peptide synthesis; 2-chlorotrityl chloride (CTC) resin, substitution 1.22 mmol/g; HBTU/HOBt/DIPEA, with catalytic Copper(II) chloride/Magnesium chloride
# Settings: whole synthesis
substance,measurement,setting,value
Icatibant,crude purity (method not given),scale 35 mmol,76.8%
same,crude yield,scale 35 mmol,68%
same,crude purity (method not given),"scale of the general procedure 10 g resin, run 1",68.69%
same,crude purity (method not given),"scale of the general procedure 10 g resin, run 2",67.08%
same,crude purity (method not given),"scale of the general procedure 10 g resin, run 3",72.38%
same,crude purity (method not given),"scale of the general procedure 10 g resin, run 4",around 77.92%
same,crude purity (method not given),"scale of the general procedure 10 g resin, run 5",64.97%
same,crude purity (method not given),"scale of the general procedure 10 g resin, run 6",74.54%
